In the supplement of paper PMC9588766:
± gives the standard deviation of the averaged measurements. Shown are results outside the selection of lowest values, which stands elsewhere.

System: PDC-DUC18828
Assay: cell viability relative to DMSO control (compound alone) (fraction); PDC-DUC18828 is a patient-derived cholangiocarcinoma cell line; higher = less growth inhibition
Conditions: 1 µM; 72 h
Method: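 Selleck Bioactive library screen in the patient-derived FGFR2-G3BP2 fusion-positive ICC cell line PDC-DUC18828 (500 cells/well). Each compound was tested at 1 uM alone, in triplicate, for 72 h. Viability was read by CellTiter-Glo and normalised to plate DMSO controls.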

SMILES	cell viability
CN1C2CCC1CC(OC(=O)C(O)c1ccccc1)C2 (centres undefined) [Homatropine Bromide]	1.04 ± 0.041
Cc1ccc(C(=O)NCCCCCC(=O)Nc2ccccc2N)cc1	1.07 ± 0.066
Cc1ccccc1-n1c(Cn2nc(-c3cccc(O)c3)c3c(N)ncnc32)nc2cccc(C)c2c1=O	1.02 ± 0.051
Cc1nc2c(-c3cnc(N)nc3)nc(N3CCOCC3)nc2n1C(C)C	0.274 ± 0.0054
